The data set can be described thus: general procedure: solution-phase peptide synthesis. The following applies: for cyclisation yield: cyclisation step, HPLC internal standard.
Setting [1] is: late stage modification step, qNMR.

Regarding “(2S)-1-[(2S)-2-[[2-[[(2S)-2-[benzyloxycarbonyl(ethyl)amino]-3-(p-tolyl)propanoyl]-methyl-amino]acetyl]amino]-4-[3,5-difluoro-4-(trifluoromethyl)phenyl]butanoyl]pyrrolidine-2-carboxylic acid”, the step yield under setting [1] is listed as 77.5%.

“(5S,8S,11S,15S,18S,23aS,29S,35S,37aS)-8-((S)-sec-butyl)-18-cyclopentyl-29-(3,5-difluoro-4-(trifluoromethyl)phenethyl)-36-ethyl-11-isobutyl-N,N,5,6,12,16,19,33-octamethyl-35-(4-methylbenzyl)-4,7,10,13,17,20,23,28,31,34,37-undecaoxotetratriacontahydro-2H,4H-spiro”: the cyclisation yield runs as follows: (run 1) 84%; (run 2) 86%; (run 3) 84%; (run 4) 82%; (run 5) 71%; (run 6) 83%. For the same substance, the cyclisation yield by setting is: (run 7) 88%; (run 8) 83%.

For the substance “tert-butyl 2-[[(2S)-2-[[(2S)-1-[(2S)-2-[[(2S,3S)-2-(benzyloxycarbonylamino)-3-methyl-pentanoyl]-methyl-amino]propanoyl]azetidine-2-carbonyl]-ethyl-amino]-3-(p-tolyl)propanoyl]-methyl-amino]acetate”, the step yield was determined as 90% (coupling step, HPLC with standard); 61.9% (coupling step, run 1); 68.6% (coupling step, run 2); 61.4% (coupling step, run 3).

“tert-butyl (2S)-1-[(2S)-2-[methyl-[(2S,3S)-3-methyl-2-[[(2S)-4-methyl-2-(methylamino)pentanoyl]amino]pentanoyl]amino]propanoyl]azetidine-2-carboxylate” registered a step yield under setting [1] of 85.4%.

The substance “tert-butyl (2S)-1-[(2S)-2-[methyl-[(2S,3S)-3-methyl-2-[[(2S)-4-methyl-2-[methyl(2-trimethylsilylethoxycarbonyl)amino]pentanoyl]amino]pentanoyl]amino]propanoyl]azetidine-2-carboxylate” displayed a step yield (coupling step, qNMR) of 88.1%.

The values above are taken from patent US20260152529 (published 2026).
